Laboratory results taken from PMC3716696 (PLoS ONE, 2013).

Test system: NEP
Test: SP degradation and SP levels in WT and Nep–/– spinal cord
Assay type: in vitro ADME, mouse
Settings: IDMS, N = 4
Description: The levels of SP in WT and Nep^–/– mice spinal cord tissue (N = 4) were compared by IDMS using Top 6 MS/MS as described previously. The degradation of SP was compared in 1 mg/mL WT and Nep^–/– mice spinal cord membrane lysates using LC-MS/MS analysis following the above method.

CSCC[C@H](NC(=O)[C@H](CC(C)C)NC(=O)CNC(=O)[C@H](Cc1ccccc1)NC(=O)[C@H](Cc1ccccc1)NC(=O)[C@H](CCC(N)=O)NC(=O)[C@H](CCC(N)=O)NC(=O)[C@@H]1CCCN1C(=O)[C@H](CCCCN)NC(=O)[C@@H]1CCCN1C(=O)[C@@H](N)CCCNC(=N)N)C(N)=O [SP, Substance P]
Endogenous SP levels in spinal cords of NEP+/+ vs NEP–/– mice: same spinal cord concentrations; also recorded: no difference

Entries after “also recorded” stand apart in the source; their conditions may differ.
